In publication PMC8071052:
Results are given in words; binding and its absence hold for the method and conditions named.

Columns and labels:
[1] = target: T1, ADA2b (alteration/deficiency in activation-2b) transcriptional adaptor, Arabidopsis thaliana (Arabidopsis thaliana) (UniProt Q9ATB4); assay: two-hybrid; Matchmaker Gold System; baits in pGBKT7 in yeast AH109, preys in pGADT7 in Y187; tenfold serial dilutions plated on high stringency media, 5 days at 30 °C; empty pGBKT7 as negative control
T1 sequence: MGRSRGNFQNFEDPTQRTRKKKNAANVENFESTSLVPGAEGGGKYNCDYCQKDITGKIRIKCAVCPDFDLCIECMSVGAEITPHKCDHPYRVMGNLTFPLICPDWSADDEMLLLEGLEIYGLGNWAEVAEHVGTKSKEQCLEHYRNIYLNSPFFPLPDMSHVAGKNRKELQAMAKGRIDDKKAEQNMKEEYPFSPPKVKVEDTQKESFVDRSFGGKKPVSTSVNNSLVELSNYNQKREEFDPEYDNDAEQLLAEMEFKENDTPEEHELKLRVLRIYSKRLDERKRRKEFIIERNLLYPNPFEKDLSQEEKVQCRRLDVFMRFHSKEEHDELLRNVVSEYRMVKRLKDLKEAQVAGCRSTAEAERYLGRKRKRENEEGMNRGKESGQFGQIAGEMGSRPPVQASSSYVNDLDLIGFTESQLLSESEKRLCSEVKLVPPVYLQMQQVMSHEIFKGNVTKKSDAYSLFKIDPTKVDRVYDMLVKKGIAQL

[2] = target: T2, SGF11, Arabidopsis thaliana (Arabidopsis thaliana) (UniProt Q94BV2); assay: as above
T2 sequence: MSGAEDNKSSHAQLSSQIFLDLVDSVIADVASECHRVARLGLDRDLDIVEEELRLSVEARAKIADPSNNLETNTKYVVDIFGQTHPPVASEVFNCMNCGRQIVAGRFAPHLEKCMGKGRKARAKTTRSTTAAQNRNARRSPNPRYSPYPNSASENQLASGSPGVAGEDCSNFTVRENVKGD

binding [1]: no binding | binding [2]: no binding
Substance: ADA3a (alteration/deficiency in activation-3a), Arabidopsis thaliana (from UniProt O64572)
